Measured values taken from publication PMC12509758.
Results are given in words; binding and its absence hold for the method and conditions named. In cells and extracts the contact can be indirect. Some binding calls cover weakened binding; strength is not graded here. For some assays here: Where a sequence is shown, tags or fusion partners need not be part of it.

Amino acid sequences for entries named in this document (tags omitted).
UniProt Q969H0: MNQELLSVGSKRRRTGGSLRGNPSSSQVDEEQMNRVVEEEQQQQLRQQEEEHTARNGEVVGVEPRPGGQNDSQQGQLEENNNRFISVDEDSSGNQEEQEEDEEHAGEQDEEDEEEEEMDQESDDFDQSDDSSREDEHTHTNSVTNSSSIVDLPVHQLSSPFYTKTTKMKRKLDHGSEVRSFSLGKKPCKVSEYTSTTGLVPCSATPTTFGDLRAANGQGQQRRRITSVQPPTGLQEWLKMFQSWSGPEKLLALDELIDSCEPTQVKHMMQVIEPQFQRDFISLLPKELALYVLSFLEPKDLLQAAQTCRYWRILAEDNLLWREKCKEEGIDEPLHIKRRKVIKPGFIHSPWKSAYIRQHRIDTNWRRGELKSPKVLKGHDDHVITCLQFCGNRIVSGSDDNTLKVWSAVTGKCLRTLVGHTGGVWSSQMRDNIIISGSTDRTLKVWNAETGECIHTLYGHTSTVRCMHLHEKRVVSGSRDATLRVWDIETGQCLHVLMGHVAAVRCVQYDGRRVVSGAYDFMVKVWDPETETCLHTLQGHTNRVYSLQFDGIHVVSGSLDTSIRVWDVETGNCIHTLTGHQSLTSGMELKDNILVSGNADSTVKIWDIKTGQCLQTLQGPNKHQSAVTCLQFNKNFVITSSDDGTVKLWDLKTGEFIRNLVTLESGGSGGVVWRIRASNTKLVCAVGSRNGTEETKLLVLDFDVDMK
UniProt P49841: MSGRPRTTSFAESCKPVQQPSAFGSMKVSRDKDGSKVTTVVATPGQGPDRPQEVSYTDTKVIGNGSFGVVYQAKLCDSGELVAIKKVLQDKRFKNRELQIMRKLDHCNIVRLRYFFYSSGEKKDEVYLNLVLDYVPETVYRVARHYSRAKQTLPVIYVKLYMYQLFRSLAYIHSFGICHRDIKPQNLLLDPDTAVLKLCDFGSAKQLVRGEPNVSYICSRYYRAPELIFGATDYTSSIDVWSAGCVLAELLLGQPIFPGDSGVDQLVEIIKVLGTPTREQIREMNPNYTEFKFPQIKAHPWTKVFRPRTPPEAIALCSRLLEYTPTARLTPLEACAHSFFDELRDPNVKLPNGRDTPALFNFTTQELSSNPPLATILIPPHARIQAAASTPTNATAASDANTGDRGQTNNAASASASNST

Columns and labels:
[1] = molecular target: T1, Flag-tagged FBXO9 (wild type) (UniProt Q9UK97); test: co-IP; Flag-FBXO9 and Myc-YAP (wild type, S338A/T342A or deletion mutants) co-transfected into HEK293 cells for 24 h; total lysates subjected to IP and Western blot
T1 sequence: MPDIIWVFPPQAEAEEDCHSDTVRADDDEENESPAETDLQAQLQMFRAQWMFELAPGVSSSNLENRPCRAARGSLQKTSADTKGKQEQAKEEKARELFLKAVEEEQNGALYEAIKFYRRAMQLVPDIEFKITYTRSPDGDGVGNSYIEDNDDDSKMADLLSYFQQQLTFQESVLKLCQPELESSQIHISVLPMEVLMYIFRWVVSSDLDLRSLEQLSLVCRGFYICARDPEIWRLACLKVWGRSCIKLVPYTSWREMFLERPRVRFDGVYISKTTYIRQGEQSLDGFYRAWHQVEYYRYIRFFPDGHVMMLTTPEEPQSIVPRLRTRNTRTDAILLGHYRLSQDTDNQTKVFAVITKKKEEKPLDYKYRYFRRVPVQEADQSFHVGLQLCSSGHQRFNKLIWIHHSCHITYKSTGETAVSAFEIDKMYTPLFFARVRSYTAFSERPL

[2] = molecular target: T1, Flag-tagged FBXO9 (wild type); test: co-IP; T-24 and 5637 cells transfected as indicated for 12 h, then normal or hypoxic conditions for 4 h; IP with an anti-Flag antibody, Western blot
[3] = molecular target: FBXW7 (in bladder cancer cells; endogenous or transfected not told) (UniProt Q969H0); test: co-IP; BC cells with FBXO9 silenced (Fig. S1G); legend not shown
[4] = molecular target: Flag-GSK-3β (UniProt P49841); test: co-IP; HEK293 cells transfected as indicated for 24 h; IP for GSK-3β with anti-Myc or anti-Flag antibodies, Western blot
[5] = molecular target: Myc-GSK-3β (UniProt P49841); test: as above
[6] = molecular target: T2, endogenous FBXO9 (human (endogenous in T-24, 5637, HEK293)) (UniProt Q9UK97); test: co-IP; endogenous proteins in T-24, 5637 and HEK293 lysates; also T-24 with or without the GSK-3β inhibitor TDZD-8 for 8 h (interaction substantially reduced) and BC cells with FBXW7 knocked down (binding promoted)
T2 sequence: T1 sequence

[7] = molecular target: T1, Flag-tagged FBXO9 (wild type); test: co-IP; Flag-tagged F-box proteins (or Flag-FBXO9 wild type and deletion mutants) transfected into HEK293 cells; lysates precipitated with FLAG-conjugated beads, Western blot for YAP; also with FBXW7 and FBXO9 co-expressed (Fig. S1E)
[8] = molecular target: Flag-tagged FBXW7 (UniProt Q969H0); test: as above

Myc-tagged YAP (wild type) (from UniProt P46937-8 1-492)
binding [1]: binds

YAP (in lysates of cells 'transfected as indicated'; endogenous or transfected not told) (from UniProt P46937-8 1-492)
binding [2]: binds
binding [3]: binds
binding [4]: binds
binding [5]: binds

endogenous YAP (Yes-associated protein) (from UniProt P46937-8 1-492)
binding [6]: binds
binding [7]: binds
binding [8]: binds
